For the experiment, the target named is Recombinant Human Profilin 1 (human) (UniProt P07737). The experiment is described as follows: intrinsic tryptophan fluorescence (emission spectra with and without the peptide); 10 uM human Profilin 1 in the absence and presence of 4.5 mM peptide, 20 °C, excitation 295 nm, emission 300-400 nm; blue shift and enhanced emission of Trp3 and Trp31 of Profilin 1 on ligand binding; both purified.

Protein sequences, listed by entry. Tags and fused reporters are not part of them.
UniProt P07737: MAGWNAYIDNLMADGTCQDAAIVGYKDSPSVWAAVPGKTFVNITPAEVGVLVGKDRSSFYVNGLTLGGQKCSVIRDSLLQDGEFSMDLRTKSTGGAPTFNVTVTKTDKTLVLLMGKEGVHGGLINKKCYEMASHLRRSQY

No constants are given. Whether binding was seen depends on the method and setting. Some entries that bind do so weakly or less than the wild type.

Results on 1 molecule are retold here after publication PMC9166367.

For GPPPPAPAPQP (N-terminal acetyl; C-terminal amide) [proline-rich peptide ac…am, covering residues 166-175 of hCPEB3], the binding result is “binds weakly”.
